The structures appear in SMILES notation. Some of the results follow. The main result of the screen is listed elsewhere. These columns were measured beside it and carry no call. Most of these compounds were active or inconclusive in the main read-out, so they are no random draw. The note in brackets gives the kind of curve behind each potency; many fits are weak.

The experiment is described as follows: Cell signaling CRE-BLA (Fsk stim). The conditions noted are these: CHO CRE-bla reporter (cAMP response element driving beta-lactamase), forskolin EC10, beta-lactamase ratio; measured here: 460 nm blue channel. A digest of the protocol:
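Reporter-gene assay: CHO cells with beta-lactamase behind cAMP responsive elements, co-treated with compound and EC10 NKH 477 for 3 hours at 37 degrees Celsius. Activity came from the 460/530 nm CCF4 emission ratio.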
On to `O=C(O)CSC1CC(=O)N(c2ccc(Cl)c(Cl)c2)C1=O` (centres undefined), for which the AC50 was 20 µM [falling, single point].
Take `Nc1c2c(nc3ccn(-c4ccccc4)c(=O)c13)CCCCC2`: the concentration at half-maximal activity (AC50) was 15.8 µM [rising, single point].
Regarding `COC(=O)[C@@]1(Cc2ccc(F)cc2)[C@H]2c3cc(C(=O)N4CCCC4)n(Cc4cc(F)cc5c4OCOC5)c3C[C@H]2CN1C(=O)c1ccccc1`, the AC50 is 0.398 µM [rising, full curve, poor fit].
On to `CCCCc1nc2ccccc2n2cc3c(=O)n(C)c(=O)n(C)c3c12`, for which the half-maximal activity concentration (AC50) was 1.58 µM [rising, full curve].
Consider `COc1ccc(C2CC(C(F)(F)F)n3ncc(C(=O)NCc4cccnc4)c3N2)cc1OC` (centres undefined), for which the AC50 was 10 µM [rising, partial curve].
Regarding `O=C(Cn1nc(-c2ccccc2)c2ccccc2c1=O)Nc1ccc2c(c1)nc1n2CCOC1`, the AC50 is 10 µM [rising, single point].
For `Cc1cc(C(F)(F)F)n2ncc(-c3ccccc3)c2n1`, the AC50 is 10 µM [rising, single point].
Take `CCOC(=O)N1CCN(c2ccc(C(=O)c3ccccc3)cc2F)CC1`: the AC50 is 0.398 µM [rising, full curve].
For `O=C(CN1CCN(c2nc(-c3ccccc3)cs2)CC1)NCc1ccc2c(c1)OCO2` the value was 25.1 µM [falling, single point]; for `Cc1ccc(S(=O)(=O)N2CCN(C(=O)COC(=O)COc3ccccc3)CC2)cc1`, 10 µM [rising, partial curve].
As for `Cc1nc(NCc2ccco2)c2oc3ccccc3c2n1`, the AC50 is 6.31 µM [rising, partial curve].
Take `Cn1c(=O)[nH]c(=O)c2c1nc(Sc1ncccn1)n2CCCc1ccccc1`: the AC50 was 25.1 µM [falling, single point].
Take `Fc1ccccc1N1CCN(C2CCN(Cc3c[nH]c4ccccc34)CC2)CC1`: the concentration at half-maximal activity (AC50) was 2.51 µM [falling, partial curve, poor fit].
Regarding `CN1C=CC=C/C1=C1\SC(=S)N(C2CCCCC2)C1=O`, the concentration at half-maximal activity (AC50) was 0.794 µM [falling, full curve, poor fit].
On to `N#Cc1ccccc1-c1nc(NCCN2CCOCC2)c2ccccc2n1`, for which the AC50 is 10 µM [rising, partial curve].
For the compound `CC1(C)NC(C)(C)C(O)(C(N)=O)C1=O` (centres undefined), the AC50 was 0.158 µM [falling, full curve].
Turning to `CCN1C(=O)c2cccc3cccc1c23`, the half-maximal activity concentration (AC50) was 10 µM [rising, partial curve].
Turning to `Cc1cc2cc(CCNC(=O)c3ccc(Br)o3)c(=O)[nH]c2cc1C`, the AC50 is 3.16 µM [rising, full curve].
Under `CCN1CCN(c2nc3ccccc3nc2C(C#N)C(=O)OCc2ccccc2)CC1` (centres undefined) stands 12.6 µM [rising, single point]; under `COc1cc2c(C#N)c(N3CCc4ccccc4C3)nc(N)c2c(N)n1`, 1 µM [rising, full curve]; under `CCn1c(CC(=O)Nc2cccc(OC)c2)nnc1SCC(=O)Nc1nccs1`, 0.00316 µM [falling, full curve, poor fit].
Under `CCOc1ccc(Cc2nc(-c3nonc3N)no2)cc1OCC` stands 15.8 µM [rising, partial curve].
As for `CCOC(=O)CSc1nnc(NCC(=O)OC(C)C)c(=O)[nH]1`, the AC50 was 12.6 µM [falling, partial curve].
With `CCOC(=O)c1cnc(-c2cccc(OC)c2)[nH]c1=O`, the AC50 was 0.631 µM [falling, full curve].
Regarding `CCOc1cc2[nH]c(=O)n(CCc3ccc(OC)c(OC)c3)c(=O)c2cc1OCC`, the concentration at half-maximal activity (AC50) was 0.126 µM [falling, full curve, poor fit].
For the compound `Cc1ccc(-n2ncc3c(=O)n(CC(=O)N4CCCCCC4)cnc32)cc1`, the AC50 is 25.1 µM [rising, partial curve].
As to `CCOC(=O)C1=C(C)OC(N)=C(C#N)C1c1c(C)nn(-c2ccccc2)c1Cl` (centres undefined), the AC50 was 0.126 µM [falling, single point].
As to `COCCn1c(N)c(C(=O)OCc2ccccc2)c2nc3ccccc3nc21`, the AC50 was 12.6 µM [rising, partial curve].
In the case of `O=C(CSC1=NCCS1)N1CCCC1`, the concentration at half-maximal activity (AC50) was 3.98 µM [falling, single point].
Regarding `CN(C)c1ccc(-c2nc(NCCN3CCOCC3)c3ccccc3n2)cc1`, the AC50 is 7.94 µM [rising, partial curve].
On to `COc1ccccc1CNc1cc(-c2ccccc2OC)ncn1`, for which the AC50 is 3.16 µM [falling, single point].
In the case of `CCCCCCCCOc1ccc(C(=O)O)cc1`, the AC50 was 15.8 µM [rising, partial curve, poor fit].
With `CCOC(=O)c1cc(C)sc1NC(=O)C1CCC1`, the AC50 was 10 µM [rising, partial curve].
As for `CCSc1nnc2c(n1)OC1(CCCC1)Nc1ccccc1-2`, the AC50 was 12.6 µM [rising, single point].
With `CCCCCNC(=O)C(C#N)c1nc2ccccc2nc1N1CCCC1` (centres undefined), the AC50 was 12.6 µM [rising, single point].
For the compound `Cc1ccc(N2C(=O)CSC2c2cccs2)cc1` (centres undefined), the concentration at half-maximal activity (AC50) was 5.01 µM [falling, partial curve].
As for `CCOC(=O)c1cc2sc(C)cc2n1CC(=O)N1CCN(C(=O)c2ccco2)CC1`, the AC50 is 0.126 µM [falling, full curve, poor fit].
As for `N#CCCn1c(=O)c(-c2ccc(F)cc2)nc2cnc(N3CCOCC3)nc21`, the AC50 was 1.26 µM [rising, full curve].
As for `COc1cc2[nH]c(=S)nc(NCC3CCCO3)c2cc1OC` (centres undefined), the AC50 was 12.6 µM [rising, single point].
In the case of `N#Cc1cccc(-c2nccc(NCc3ccccc3)n2)c1`, the half-maximal activity concentration (AC50) is 25.1 µM [rising, single point].
For the compound `Cc1ccc(N2C(=O)CSC2c2cccnc2)cc1F` (centres undefined), the AC50 was 12.6 µM [falling, partial curve, poor fit].
With `CCCCC#Cc1nc(NC)c2ncn([C@@H]3O[C@@H](CO)[C@H](O)[C@H]3O)c2n1`, the concentration at half-maximal activity (AC50) was 15.8 µM [rising, partial curve].
`c1ccc(N2CCN(c3ncnc4c3oc3ccccc34)CC2)cc1`: the AC50 was 2 µM [rising, partial curve].
Consider `CCC(C)NC(=O)c1c(N)n(/N=C/c2cccnc2)c2nc3ccccc3nc12` (centres undefined), for which the AC50 was 3.16 µM [rising, partial curve].
With `COc1ccc(-c2nsc(SCC(=O)Nc3cc(C)on3)n2)cc1`, the AC50 was 0.00398 µM [falling, full curve, poor fit].
As for `COc1ccc2c(C(F)(F)F)cc(=O)oc2c1C`, the AC50 was 25.1 µM [rising, single point].
Regarding `Cc1[nH]c2ccccc2c1CCC(N)=O`, the half-maximal activity concentration (AC50) was 0.2 µM [rising, partial curve, poor fit].
Under `Cc1ccc2c(c1)cc(CN(Cc1ccccc1)C(=O)N(C)C)c1nnnn12` stands 0.00316 µM [falling, full curve, poor fit].
For the compound `CCCc1nc2oc3c(NCc4ccccn4)ncnc3c2c2c1COC(C)(C)C2`, the AC50 is 1 µM [rising, full curve].
Under `CCc1cccc2c(-c3ccccc3)c3c(nc12)OCC3` stands 6.31 µM [rising, partial curve].
Turning to `O=C(CC1CCS(=O)(=O)C1)Nc1ccc[nH]c1=O` (centres undefined), the concentration at half-maximal activity (AC50) is 12.6 µM [falling, partial curve, poor fit].
For `Cc1ccc2c(c1)nc(NCCO)n2C` the value was 31.6 µM [falling, single point].
Consider `CC(C)C1N=C2c3ccccc3N=C(SCc3cc(=O)n4ccccc4n3)N2C1=O` (centres undefined), for which the AC50 was 0.631 µM [rising, full curve].
For the compound `O=c1[nH]c2ccccc2nc1C(F)(F)C(F)F`, the AC50 is 1.58 µM [rising, partial curve].
`CCOC(=O)c1[nH]c2ccc(F)cc2c1NC(=O)C(C)N1CCc2cc(OC)c(OC)cc2C1` (centres undefined): the AC50 was 12.6 µM [rising, single point].
For `c1c2c(cc3sc(N4CCOCC4)nc13)OCCO2`, the AC50 is 25.1 µM [rising, single point].
For `CCOP(=O)(c1ccc(N(C)C)cc1)C(O)c1cc(OC)c(OC)c(OC)c1` (centres undefined), the AC50 was 0.0794 µM [falling, full curve, poor fit].
For `CCOC(=O)/C(C#N)=C1/C=Nc2ccccc2N1` the value was 12.6 µM [rising, partial curve].
In the case of `CC1(C)CC(=O)N(CC(=O)O)c2ccccc2S1`, the AC50 was 25.1 µM [falling, single point].
Regarding `CCn1c(=O)cc(OCC(=O)N(C)c2ccccc2F)c2ccccc21`, the AC50 was 10 µM [rising, single point].
As to `CC1C2CC(C(S(=O)(=O)N3CCOCC3)C2=O)C1(C)C` (centres undefined), the AC50 was 0.126 µM [falling, full curve, poor fit].
Turning to `COCCn1c(=O)c(CCc2ccccc2)nc2cnc(Nc3cccc(OC)c3)nc21`, the AC50 is 12.6 µM [rising, partial curve].
For the compound `NCCNS(=O)(=O)c1cccc2c(Cl)cccc12`, the AC50 was 31.6 µM [falling, single point].
Consider `CC(c1nnc(Sc2nnnn2-c2ccccc2)n1-c1ccc(F)cc1)N(C)C` (centres undefined), for which the AC50 is 3.16 µM [falling, single point].
Turning to `O=C1c2ccccc2C(=O)N1CCCCN(C(=O)c1ccco1)c1ccc(Cl)cc1`, the AC50 is 10 µM [falling, single point].
As to `CCCCCOc1ccc(C2C(C(C)=O)=C(C)Nc3ncnn32)cc1OC` (centres undefined), the half-maximal activity concentration (AC50) is 3.16 µM [rising, full curve].
On to `COc1ccc2[nH]cc(CCNc3cc(-c4ccc5c(c4)OCO5)ncn3)c2c1`, for which the AC50 is 2 µM [rising, full curve].
On to `COc1ccc(-c2csc(Cc3nnc4n3CCCCC4)n2)cc1OC`, for which the AC50 was 5.01 µM [rising, partial curve].
On to `COc1ccc(CCNC(=O)CSc2ncnc3c2oc2ccccc23)cc1OC`, for which the AC50 was 12.6 µM [rising, partial curve].

These data come from PubChem BioAssay AID662 (National Center for Advancing Translational Sciences (NCATS), 2007).
